Test results from the supplement of paper PMC4604168 (melanoma cell lines).
The list shows a part of the results. Single values are uncertain, as repeats are few or missing.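 Cells were imaged in 1,536-well plates, and nuclei stained with an antibody against cleaved PARP were counted against all DNA-stained nuclei to give the apoptosis fraction. Screening doses were chosen to leave most cells alive, and resting and induced cleaved-PARP levels differ strongly between cell lines.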

What was measured:
Assay in all cases: cleaved PARP positive nuclei fraction relative to DMSO control; melanoma cells; higher = more apoptosis
Conditions in all cases: library dose: low library concentration; 72 h
MZ2-MEL = test system: MZ2-MEL
MeWo = test system: MeWo
RPMI7951 = test system: RPMI7951
RVH-421 = test system: RVH-421
SkMel28 = test system: SkMel28
SkMel2 = test system: SkMel2
SkMel30 = test system: SkMel30
SkMel5 = test system: SkMel5
UACC257 = test system: UACC257
UACC62 = test system: UACC62
WM115 = test system: WM115
WM1716 = test system: WM1716
WM1745 = test system: WM1745
WM3526 = test system: WM3526
WM3619 = test system: WM3619
WM451Lu = test system: WM451Lu

| Compound | cleaved PARP positive nuclei fraction (MZ2-MEL) | cleaved PARP positive nuclei fraction (MeWo) | cleaved PARP positive nuclei fraction (RPMI7951) | cleaved PARP positive nuclei fraction (RVH-421) | cleaved PARP positive nuclei fraction (SkMel28) | cleaved PARP positive nuclei fraction (SkMel2) | cleaved PARP positive nuclei fraction (SkMel30) | cleaved PARP positive nuclei fraction (SkMel5) | cleaved PARP positive nuclei fraction (UACC257) | cleaved PARP positive nuclei fraction (UACC62) | cleaved PARP positive nuclei fraction (WM115) | cleaved PARP positive nuclei fraction (WM1716) | cleaved PARP positive nuclei fraction (WM1745) | cleaved PARP positive nuclei fraction (WM3526) | cleaved PARP positive nuclei fraction (WM3619) | cleaved PARP positive nuclei fraction (WM451Lu) |
| --- | --- | --- | --- | --- | --- | --- | --- | --- | --- | --- | --- | --- | --- | --- | --- | --- |
| O=C(/C=C/c1cccnc1)NCCCCC1CCN(C(=O)c2ccccc2)CC1 + N#Cc1c(O)c2c(-c3ccc(-c4ccccc4O)cc3)csc2[nH]c1=O [A769662] (first compound 0.01 µM, partner dose 2 µM) | 704% | 129% | 119% | 108% | 124% | 893% | 216% | 76.3% | 128% | 108% | 198% | 152% | 158% | 192% | 108% | 191% |
| O=c1[nH]nc(Sc2ncc([N+](=O)[O-])s2)n1-c1ccc2c(c1)OCCO2 + Cn1cc(/C=C2\C(=O)Nc3cccnc32)c2ccccc21 [GW441756] (first compound 0.2 µM, partner dose 0.4 µM) | 138% | 67.3% | 71.9% | 53.7% | 73.5% | 24.9% | 40.1% | 78.7% | 251% | 163% | 99.5% | 43.9% | 185% | 49.7% | 104% | 47.8% |
| N#CC[C@H](C1CCCC1)n1cc(-c2ncnc3[nH]ccc23)cn1 [ruxolitinib] + Cc1cc([N+](=O)[O-])ccc1NS(=O)(=O)c1cc(Cl)ccc1Cl [FH535] (first compound 1 µM, partner dose 1 µM) | 80.7% | 56.8% | 32.3% | 93.2% | 148% | 43.8% | 45.9% | 118% | 87% | 153% | 147% | 82% | 75.5% | 37.2% | 117% | 74% |
| O=c1[nH]nc(Sc2ncc([N+](=O)[O-])s2)n1-c1ccc2c(c1)OCCO2 + COc1ccc(COc2ccc(Cc3cnc(N)nc3N)cc2OC)cc1 [GW2580] (first compound 0.2 µM, partner dose 1 µM) | 80.7% | 76.2% | 51.9% | 85.4% | 46% | 73.5% | 170% | 80% | 126% | 54.8% | 52.6% | 213% | 89.8% | 62.1% | 98.1% | 46.1% |
| Cc1cc(Nc2cc(N3CCN(C)CC3)nc(Sc3ccc(NC(=O)C4CC4)cc3)n2)n[nH]1 [Tozasertib] + Oc1nc(-c2ccc(C(F)(F)F)cc2)nc2c1CSCC2 [XAV939] (first compound 0.006 µM, partner dose 2 µM) | 98.9% | 89.6% | 231% | 62.6% | 115% | 130% | 39.2% | 97.5% | 167% | 171% | 168% | 338% | 120% | 78.2% | 111% | 122% |
| O=C(Nc1cc(C(F)(F)F)cc(C(F)(F)F)c1)c1cc(Cl)ccc1O + OCCn1cc(-c2cnc3nnn(Cc4ccc5ncccc5c4)c3n2)cn1 [PF04217903] (first compound 0.016 µM, partner dose 1 µM) | 29.2% | 92.7% | 47.2% | 119% | 189% | 107% | 57.2% | 73.3% | 104% | 49.7% | 370% | 90.4% | 72% | 57.4% | 97.4% | 21.9% |
| COc1cc([C@@H]2c3cc4c(cc3[C@@H](O[C@@H]3O[C@@H]5CO[C@@H](C)O[C@H]5[C@H](O)[C@H]3O)[C@H]3COC(=O)[C@H]23)OCO4)cc(OC)c1O [etoposide] + Cc1ccc(NC(=O)c2cccc(N(C)C)c2)cc1NC(=O)c1ccc(O)cc1 [ZM336372] (first compound 0.02 µM, partner dose 2 µM) | 184% | 52.1% | 113% | 130% | 137% | 65.3% | 68.2% | 86.7% | 333% | 180% | 92.4% | 104% | 103% | 69.7% | 102% | 56.4% |
| Cc1cc(Nc2cc(N3CCN(C)CC3)nc(Sc3ccc(NC(=O)C4CC4)cc3)n2)n[nH]1 [Tozasertib] + COC(=O)c1sccc1S(=O)(=O)Nc1ccc(Nc2ccccc2)cc1OC [GSK0660] (first compound 0.006 µM, partner dose 1 µM) | 137% | 158% | 102% | 126% | 120% | 46.4% | 41.6% | 74.5% | 189% | 122% | 150% | 86.3% | 91.3% | 123% | 96.2% | 113% |
| N#CC[C@H](C1CCCC1)n1cc(-c2ncnc3[nH]ccc23)cn1 [ruxolitinib] + O=C(Nc1ccccc1)c1cc([N+](=O)[O-])ccc1Cl [GW9662] (first compound 1 µM, partner dose 2 µM) | 128% | 197% | 151% | 108% | 145% | 72.7% | 178% | 84.2% | 25.6% | 117% | 65.7% | 70.1% | 102% | 251% | 87.8% | 145% |
| Cc1ccc(Nc2nccc(N(C)c3ccc4c(C)n(C)nc4c3)n2)cc1S(N)(=O)=O [Pazopanib] + CN(C)S(=O)(=O)c1ccc2c(c1)/C(=C/c1cc3c([nH]1)CCCC3)C(=O)N2 [SU6656] (first compound 0.4 µM, partner dose 0.4 µM) | 100% | 112% | 60.8% | 201% | 72.9% | 51.1% | 84.8% | 66.7% | 135% | 43.2% | 147% | 78% | 102% | 256% | 97.3% | 88% |
| O=C(/C=C/c1cccnc1)NCCCCC1CCN(C(=O)c2ccccc2)CC1 + COc1cc(Nc2ncc(F)c(Nc3ccc4c(n3)NC(=O)C(C)(C)O4)n2)cc(OC)c1OC [Tamatinib] (first compound 0.01 µM, partner dose 0.4 µM) | 419% | 129% | 205% | 150% | 141% | 261% | 94.7% | 274% | 83.5% | 172% | 446% | 205% | 118% | 61.9% | 206% | 64.8% |
| Cc1cc(Nc2cc(N3CCN(C)CC3)nc(Sc3ccc(NC(=O)C4CC4)cc3)n2)n[nH]1 [Tozasertib] + O=C(O)c1ccc(-c2c[nH]c3ncc(-c4ccccc4)cc23)cc1C1CCCC1 [GSK650394] (first compound 0.006 µM, partner dose 0.16 µM) | 138% | 56.1% | 102% | 101% | 183% | 168% | 58.1% | 151% | 56.3% | 76.9% | 72.3% | 57.5% | 90.6% | 65.8% | 111% | 104% |
| O=C(/C=C/c1cccnc1)NCCCCC1CCN(C(=O)c2ccccc2)CC1 + C=CCn1c(=O)c2cnc(Nc3ccc(N4CCN(C)CC4)cc3)nc2n1-c1cccc(C(C)(C)O)n1 [MK1775] (first compound 0.01 µM, partner dose 0.02 µM) | 1310% | 72.9% | 100% | 217% | 231% | 808% | 63.8% | 54.2% | 90.3% | 31.4% | 127% | 26.6% | 111% | 48.4% | 137% | 216% |
| COc1cc([C@@H]2c3cc4c(cc3[C@@H](O[C@@H]3O[C@@H]5CO[C@@H](C)O[C@H]5[C@H](O)[C@H]3O)[C@H]3COC(=O)[C@H]23)OCO4)cc(OC)c1O [etoposide] + COc1cc(N2CCC(N3CCN(C)CC3)CC2)ccc1Nc1ncc(Cl)c(Nc2ccccc2S(=O)(=O)C(C)C)n1 [NVP-TAE684] (first compound 0.02 µM, partner dose 0.08 µM) | 31.2% | 93.5% | 102% | 95.2% | 79.6% | 103% | 61.7% | 81.8% | 16.2% | 141% | 90.4% | 129% | 108% | 41.6% | 85.1% | 64.5% |
| Cc1cn(-c2cc(NC(=O)c3ccc(C)c(Nc4nccc(-c5cccnc5)n4)c3)cc(C(F)(F)F)c2)cn1 [nilotinib] + COC(=O)c1sccc1S(=O)(=O)Nc1ccc(Nc2ccccc2)cc1OC [GSK0660] (first compound 0.2 µM, partner dose 1 µM) | 173% | 56.3% | 35.2% | 64.5% | 178% | 58.9% | 69.7% | 39.2% | 118% | 49.3% | 46% | 34.5% | 95.4% | 77.2% | 99.1% | 26% |

2 entries from above, with tabs.
Compound	cleaved PARP positive nuclei fraction (MZ2-MEL)	cleaved PARP positive nuclei fraction (MeWo)	cleaved PARP positive nuclei fraction (RPMI7951)	cleaved PARP positive nuclei fraction (RVH-421)	cleaved PARP positive nuclei fraction (SkMel28)	cleaved PARP positive nuclei fraction (SkMel2)	cleaved PARP positive nuclei fraction (SkMel30)	cleaved PARP positive nuclei fraction (SkMel5)	cleaved PARP positive nuclei fraction (UACC257)	cleaved PARP positive nuclei fraction (UACC62)	cleaved PARP positive nuclei fraction (WM115)	cleaved PARP positive nuclei fraction (WM1716)	cleaved PARP positive nuclei fraction (WM1745)	cleaved PARP positive nuclei fraction (WM3526)	cleaved PARP positive nuclei fraction (WM3619)	cleaved PARP positive nuclei fraction (WM451Lu)
Cc1cc(Nc2cc(N3CCN(C)CC3)nc(Sc3ccc(NC(=O)C4CC4)cc3)n2)n[nH]1 [Tozasertib] + O=C(O)c1ccc(-c2c[nH]c3ncc(-c4ccccc4)cc23)cc1C1CCCC1 [GSK650394] (first compound 0.006 µM, partner dose 0.16 µM)	138%	56.1%	102%	101%	183%	168%	58.1%	151%	56.3%	76.9%	72.3%	57.5%	90.6%	65.8%	111%	104%
O=C(/C=C/c1cccnc1)NCCCCC1CCN(C(=O)c2ccccc2)CC1 + C=CCn1c(=O)c2cnc(Nc3ccc(N4CCN(C)CC4)cc3)nc2n1-c1cccc(C(C)(C)O)n1 [MK1775] (first compound 0.01 µM, partner dose 0.02 µM)	1310%	72.9%	100%	217%	231%	808%	63.8%	54.2%	90.3%	31.4%	127%	26.6%	111%	48.4%	137%	216%
